Source: PubChem BioAssay AID1259260 (Sanger Institute, 2017)

Aim: 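Kinome knock-down with three anchor drugs to find synergy partners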 (primary screen)
System: human NCI-H716 colorectal cancer cells
Reagent: siRNA pool against human genes
Conditions: anchor drugs BYL719 (alpelisib) 1 µM, cetuximab 5 µg/ml or trametinib 10 nM, each at a dose chosen to harm viability only mildly; DMSO vehicle for the knock-down-alone arm
Read-out: 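Mean viability over replicates against non-targeting siRNA, robust z-score without drug, and per-drug synergy comparing combined with single treatments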
Direction: viability robust z-score, siRNA alone: higher = more surviving cells; below -3 called essential
Active means: 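a knock-down counts as essential if its no-drug robust z-score is lower than -3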
Meaning of the calls: active = essential (knock-down alone lowers viability); inactive = no essential effect
In all, the deposit lists 794 reagents; below is a random part of them. 13 of them (1.6%) were called active. 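Calls reflect only knock-down without drug; synergy above 0.15 was grouped apart and does not change the call.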 Further read-outs or replicates are left out here. Not given: the amount of reagent, the time to read-out.

How did the screen score PFKL (phosphofructokinase, liver type)?
viability robust z-score, siRNA alone: 0.602; activity call: inactive

With GK (glycerol kinase), what was measured?
viability robust z-score, siRNA alone: 0.602; activity call: inactive

For MUSK (muscle associated receptor tyrosine kinase), what was measured?
viability robust z-score, siRNA alone: -1.66; activity call: inactive

For GUCY2D (guanylate cyclase 2D, retinal), what was measured?
viability robust z-score, siRNA alone: -3.49; activity call: active

For MAPK7 (mitogen-activated protein kinase 7), what was measured?
viability robust z-score, siRNA alone: 0.602; activity call: inactive

With BRSK1 (BR serine/threonine kinase 1), what does the deposit list?
viability robust z-score, siRNA alone: -0.254; activity call: inactive

With NEK2 (NIMA related kinase 2), what does the deposit list?
viability robust z-score, siRNA alone: 0.602; activity call: inactive

Not a retest: an excerpt of the list.
BRSK1 (BR serine/threonine kinase 1) — viability robust z-score, siRNA alone = -0.254; activity call = inactive
NEK2 (NIMA related kinase 2) — viability robust z-score, siRNA alone = 0.602; activity call = inactive

The results go on:
What is on record for KRAS (KRas proto-oncogene, GTPase)?
viability robust z-score, siRNA alone: 0.602; activity call: inactive

For ZAP70 (zeta chain of T cell receptor associated protein kinase 70), what does the deposit list?
viability robust z-score, siRNA alone: 0.602; activity call: inactive

What did the screen give for TAF1L (TATA-box binding protein associated factor 1 like)?
viability robust z-score, siRNA alone: 0.602; activity call: inactive

Which result is listed for TYRO3 (TYRO3 protein tyrosine kinase)?
viability robust z-score, siRNA alone: -0.0365; activity call: inactive

For CALM1 (calmodulin 1), what was measured?
viability robust z-score, siRNA alone: 0.0466; activity call: inactive

Which result is listed for SNRK (SNF related kinase)?
viability robust z-score, siRNA alone: -0.897; activity call: inactive

For NTRK3 (neurotrophic receptor tyrosine kinase 3), what was measured?
viability robust z-score, siRNA alone: 0.602; activity call: inactive

For PRKAR2A, what was measured?
viability robust z-score, siRNA alone: 0.602; activity call: inactive

How did the screen score LTK (leukocyte receptor tyrosine kinase)?
viability robust z-score, siRNA alone: -0.253; activity call: inactive

What is on record for HUNK (hormonally up-regulated Neu-associated kinase)?
viability robust z-score, siRNA alone: 0.602; activity call: inactive

How did the screen score PCK2 (phosphoenolpyruvate carboxykinase 2, mitochondrial)?
viability robust z-score, siRNA alone: 0.602; activity call: inactive

What did the screen give for GOLGA5 (golgin A5)?
viability robust z-score, siRNA alone: 0.0692; activity call: inactive
